Source: patent publication US8309534B2, “Compositions comprising a GPR109 ligand for treating disorders of the digestive tract and/or cancer” (Medical College of Georgia Research Institute, Inc., priority 2007, dated 2012)
Read-outs that look alike come from different tables or passages of the source. At least one compound was matched to its structure with a doubt left.

What was measured:
[1] = test system: LPS-induced activation of NF-κB promoter in CCD841 cells; settings: ligand 1 mM 8 h, then LPS 100 ng/ml 4 h, luciferase
Text: (§1) The anti-inflammatory effect of butyrate was monitored in colonic cells by its ability to suppress LPS-induced activation of NF-κB promoter with luciferase as the reporter. The participation of SLC5A8 and GPR109A in mediating the effects of extracellular butyrate was differentiated first by using specific ligands. If SLC5A8 is involved in the process, the transporter-facilitated entry of butyrate followed by inhibition of histone deacetylases (HDACs) inside the cells would be responsible for the effects. If GPR109A is involved in the process, the activation of the receptor by extracellular butyrate would be responsible for the effects. […] In these experiments, cells were first transfected with the construct carrying the NF-κB-luciferase, pretreated with GPR109A ligands (1 mM) for 8 h and then exposed to LPS (100 ng/ml) for 4 h. Following the treatment, cell lysates were used to measure luciferase activity as a read-out for activation of NF-κB.

[2] = test system: LPS-induced activation of NF-κB promoter in vector-transfected KM12L4 cells; assay: LPS-induced NF-κB promoter reporter in vector-transfected KM12L4 cells (no GPR109A); assay type: cell-based, human; settings: ligand 1 mM 8 h, LPS 100 ng/ml 4 h
Text: as §1
(§2) The cells were transfected with either empty vector or human GPR109A cDNA. […] We cloned the human GPR109A cDNA by RT-PCR using mRNA prepared from human colon, and subcloned the RT-PCR product into pcDNA vector under the control of the cytomegalovirus promoter. The insert was sequenced to confirm its molecular identity. […] The activation of the receptor was monitored by measuring the activity of a K^+-channel.

[3] = test system: LPS-induced NF-κB promoter activity in KM12L4 cells with ectopic expression of GPR109A; assay: LPS-induced NF-κB promoter reporter in KM12L4 cells transfected with human GPR109A cDNA; assay type: cell-based; settings: ligand 1 mM 8 h, LPS 100 ng/ml 4 h
Text: as §1, §2

[4] = test system: LPS-induced NF-κB promoter activity in HCT116 cells; settings: HCT116, no expression of GPR109A
Text: as §1
(§3) Additionally, two different isogenic cell lines of the human colon cancer cell line HCT116, one with normal expression of the DNA methyltransferase I(DNMT1) and the other with deletion of the gene coding for the enzyme (HCT116-DNMT1^−/−) were used.

[5] = test system: LPS-induced NF-κB promoter activity in HCT116-DNMT1−/− cells; settings: GPR109A expressed
Text: as §1, §3

[6] = test system: bone marrow-derived dendritic cells; assay: Development of bone marrow-derived dendritic cells (FACS); assay type: cell-based; settings: mouse bone marrow cells, ligand 1 mM, 4 days
Procedure: In these experiments, mouse bone marrow cells were collected and cultured in the presence of various ligands (1 mM) for 4 days. Following this, FACS (fluorescence activated cell sorting) was used to identify the fraction of various immune cell types in the sample.

[7] = test system: human colon cancer cell line transfected with mouse PUMA-G/GPR109A
PUMA-G/GPR109A = settings: recent study, read-out: concentration needed to elicit half-maximal activation of the receptor; cited from earlier work

| SMILES | effect on LPS-induced activation of NF-κB promoter [1] | effect on LPS-induced activation of NF-κB promoter ([1]; listed as Butyrate) | effect on LPS-induced activation of NF-κB promoter [2] | effect on LPS-induced NF-κB promoter activity [3] | effect on LPS-induced NF-κB promoter activity [4] | effect on LPS-induced NF-κB promoter activity [5] | effect on development of dendritic cells [6] | apoptosis after activation of re-expressed receptor [7] | EC50 (PUMA-G/GPR109A) [mM] |
| --- | --- | --- | --- | --- | --- | --- | --- | --- | --- |
| CCCC(=O)O [butyrate] | effectively suppresses the NF-κB promoter activity | able to block LPS-induced activation of NF-κB promoter | a small, but a significant effect | marked suppression | none of these compounds had any significant effect | suppressed LPS-induced promoter activity | able to block the development | the cells undergo apoptosis | ~2 |
| CC(=O)C(=O)O [pyruvate] |  |  |  |  |  |  | able to block the development |  |  |
